# Assay results taken from article PMC11093616.
# Results are given in words; binding and its absence hold for the method and conditions named. Binding seen in cells or lysates may run through a third protein. Some results given as binding are weak or reduced against the parent protein; the word gives no strength. For part of these data: Tags and fused reporters may be left off the sequences shown.
# T1: OTUD4 (OTU domain-containing protein 4), endogenous (human (endogenous in MDA-MB468, HCC827, SKOV3, HCT116)) (UniProt Q01804)
# T1 sequence: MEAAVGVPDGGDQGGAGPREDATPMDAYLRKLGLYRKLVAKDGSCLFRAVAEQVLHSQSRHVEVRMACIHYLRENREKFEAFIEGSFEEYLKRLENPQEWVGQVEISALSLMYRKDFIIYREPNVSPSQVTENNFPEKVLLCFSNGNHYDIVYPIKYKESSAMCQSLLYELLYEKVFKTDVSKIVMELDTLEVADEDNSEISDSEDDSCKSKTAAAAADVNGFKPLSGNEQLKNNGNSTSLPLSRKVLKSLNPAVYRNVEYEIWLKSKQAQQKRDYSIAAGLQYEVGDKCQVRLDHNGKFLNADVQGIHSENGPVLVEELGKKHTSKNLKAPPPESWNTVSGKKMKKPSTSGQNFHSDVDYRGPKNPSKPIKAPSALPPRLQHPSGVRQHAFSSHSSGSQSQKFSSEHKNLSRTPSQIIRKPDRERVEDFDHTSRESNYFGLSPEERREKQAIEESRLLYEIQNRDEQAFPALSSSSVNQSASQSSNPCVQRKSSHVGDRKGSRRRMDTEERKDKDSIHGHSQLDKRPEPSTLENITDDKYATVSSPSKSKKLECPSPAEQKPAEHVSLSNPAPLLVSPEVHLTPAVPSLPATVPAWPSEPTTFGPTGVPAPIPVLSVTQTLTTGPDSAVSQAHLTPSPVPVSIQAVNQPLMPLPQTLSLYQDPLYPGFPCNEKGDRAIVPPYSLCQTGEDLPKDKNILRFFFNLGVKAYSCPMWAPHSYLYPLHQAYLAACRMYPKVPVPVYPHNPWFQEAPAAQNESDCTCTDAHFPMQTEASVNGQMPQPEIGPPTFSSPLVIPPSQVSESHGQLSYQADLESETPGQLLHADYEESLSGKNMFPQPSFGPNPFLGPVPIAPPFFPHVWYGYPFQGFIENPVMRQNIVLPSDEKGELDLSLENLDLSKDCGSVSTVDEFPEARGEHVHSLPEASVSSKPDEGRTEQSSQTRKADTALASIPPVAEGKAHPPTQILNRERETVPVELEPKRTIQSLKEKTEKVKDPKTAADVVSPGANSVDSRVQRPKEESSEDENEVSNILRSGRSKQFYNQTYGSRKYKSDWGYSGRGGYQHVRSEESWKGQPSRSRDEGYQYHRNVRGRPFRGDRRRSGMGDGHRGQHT
# T2: V5-tagged OTUD4 (human) (UniProt Q01804)
# T2 sequence: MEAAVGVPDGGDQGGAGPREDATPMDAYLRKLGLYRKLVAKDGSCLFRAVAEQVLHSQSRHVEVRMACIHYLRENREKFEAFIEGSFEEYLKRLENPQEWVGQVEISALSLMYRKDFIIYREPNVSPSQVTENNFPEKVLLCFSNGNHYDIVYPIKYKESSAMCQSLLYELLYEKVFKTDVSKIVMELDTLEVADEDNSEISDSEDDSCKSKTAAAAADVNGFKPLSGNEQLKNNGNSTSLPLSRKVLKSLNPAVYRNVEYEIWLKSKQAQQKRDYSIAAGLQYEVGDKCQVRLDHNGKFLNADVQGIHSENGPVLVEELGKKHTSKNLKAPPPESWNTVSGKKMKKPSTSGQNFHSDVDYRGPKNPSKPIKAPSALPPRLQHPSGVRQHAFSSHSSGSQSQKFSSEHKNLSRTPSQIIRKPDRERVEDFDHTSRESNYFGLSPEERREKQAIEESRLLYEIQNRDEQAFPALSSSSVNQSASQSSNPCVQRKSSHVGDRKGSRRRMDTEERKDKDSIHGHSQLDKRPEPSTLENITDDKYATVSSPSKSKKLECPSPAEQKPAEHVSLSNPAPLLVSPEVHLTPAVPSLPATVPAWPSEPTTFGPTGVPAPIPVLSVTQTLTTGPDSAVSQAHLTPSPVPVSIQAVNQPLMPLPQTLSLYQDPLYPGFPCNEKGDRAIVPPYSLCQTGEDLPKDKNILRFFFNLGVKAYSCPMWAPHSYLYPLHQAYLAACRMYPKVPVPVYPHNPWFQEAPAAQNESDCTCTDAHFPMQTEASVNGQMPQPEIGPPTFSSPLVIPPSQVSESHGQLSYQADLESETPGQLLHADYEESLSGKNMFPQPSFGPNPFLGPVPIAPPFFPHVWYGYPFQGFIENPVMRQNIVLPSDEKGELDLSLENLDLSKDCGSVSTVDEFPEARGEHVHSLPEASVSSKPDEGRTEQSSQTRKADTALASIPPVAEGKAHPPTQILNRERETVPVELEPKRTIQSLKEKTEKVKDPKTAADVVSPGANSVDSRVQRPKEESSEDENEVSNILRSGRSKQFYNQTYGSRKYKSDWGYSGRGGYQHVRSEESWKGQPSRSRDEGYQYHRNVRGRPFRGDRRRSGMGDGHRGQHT
# T3: V5-tagged OTUD4 mutant without the R380-N410 segment (human) (UniProt Q01804)
# T3 sequence: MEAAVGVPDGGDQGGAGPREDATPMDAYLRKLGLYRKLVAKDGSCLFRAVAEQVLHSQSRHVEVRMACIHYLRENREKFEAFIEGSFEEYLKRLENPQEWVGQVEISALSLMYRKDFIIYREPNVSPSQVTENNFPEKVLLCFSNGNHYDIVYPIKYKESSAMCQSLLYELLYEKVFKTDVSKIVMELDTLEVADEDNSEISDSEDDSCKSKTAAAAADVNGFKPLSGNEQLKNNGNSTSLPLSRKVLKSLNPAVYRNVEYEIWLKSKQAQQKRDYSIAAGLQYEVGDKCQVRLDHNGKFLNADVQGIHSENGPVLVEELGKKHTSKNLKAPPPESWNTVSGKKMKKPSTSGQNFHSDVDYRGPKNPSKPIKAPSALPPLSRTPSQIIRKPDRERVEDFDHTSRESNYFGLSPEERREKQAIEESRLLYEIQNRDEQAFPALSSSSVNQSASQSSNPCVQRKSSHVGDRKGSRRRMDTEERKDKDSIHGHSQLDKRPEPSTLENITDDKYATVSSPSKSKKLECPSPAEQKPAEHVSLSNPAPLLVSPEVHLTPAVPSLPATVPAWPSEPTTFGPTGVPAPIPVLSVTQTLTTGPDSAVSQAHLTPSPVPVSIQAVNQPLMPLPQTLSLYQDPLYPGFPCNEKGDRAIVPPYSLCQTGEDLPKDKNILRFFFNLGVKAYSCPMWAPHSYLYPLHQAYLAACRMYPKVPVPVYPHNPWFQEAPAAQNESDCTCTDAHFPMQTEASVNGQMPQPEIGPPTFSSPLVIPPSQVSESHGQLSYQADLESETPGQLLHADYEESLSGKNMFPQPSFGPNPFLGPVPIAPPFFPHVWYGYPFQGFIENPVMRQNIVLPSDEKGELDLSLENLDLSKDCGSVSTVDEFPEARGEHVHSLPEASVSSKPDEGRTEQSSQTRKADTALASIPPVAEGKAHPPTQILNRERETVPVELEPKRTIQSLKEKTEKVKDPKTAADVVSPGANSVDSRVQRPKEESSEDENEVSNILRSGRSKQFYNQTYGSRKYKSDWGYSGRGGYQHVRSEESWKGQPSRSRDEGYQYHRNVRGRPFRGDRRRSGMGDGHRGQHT
# Experiments:
# [1] = molecular target: T1, OTUD4 (OTU domain-containing protein 4), endogenous (human (endogenous in MDA-MB468, HCC827, SKOV3, HCT116)); test: co-IP; endogenous proteins, MDA-MB468 cells; immunoprecipitation of CD73 (Figure 2B) and of OTUD4 (Figure 2C)
# V5-tagged OTUD4 (human) = molecular target: T2, V5-tagged OTUD4 (human); test: co-IP; HEK293T cotransfected with V5-tagged OTUD4 constructs and Flag/HA-tagged CD73 constructs; V5-tagged OTUD4 precipitated, blot with anti-Flag
# [2] = molecular target: T3, V5-tagged OTUD4 mutant without the R380-N410 segment (human); test: as above
binder,measurement,setting,value
"CD73, endogenous (protein, UniProt P21589 27-549) WELTILHTNDVHSRLEQTSEDSSKCVNASRCMGGVARLFTKVQQIRRAEPNVLLLDAGDQYQGTIWFTVYKGAEVAHFMNALRYDAMALGNHEFDNGVEGLIEPLLKEAKFPILSANIKAKGPLASQISGLYLPYKVLPVGDEVVGIVGYTSKETPFLSNPGTNLVFEDEITALQPEVDKLKTLNVNKIIALGHSGFEMDKLIAQKVRGVDVVVGGHSNTFLYTGNPPSKEVPAGKYPFIVTSDDGRKVPVVQAYAFGKYLGYLKIEFDERGNVISSHGNPILLNSSIPEDPSIKADINKWRIKLDNYSTQELGKTIVYLDGSSQSCRFRECNMGNLICDAMINNNLRHTDEMFWNHVSMCILNGGGIRSPIDERNNGTITWENLAAVLPFGGTFDLVQLKGSTLKKAFEHSVHRYGQSTGEFLQVGGIHVVYDLSRKPGDRVVKLDVLCTKCRVPSYDPLKMDEVYKVILPNFLANGGDGFQMIKDELLRHDSGDQDINVVSTYISKMKVIYPAVEGRIKFS",binding,[1],binds
"Flag/HA-tagged CD73 (HEK293T) (protein, UniProt P21589 27-549) WELTILHTNDVHSRLEQTSEDSSKCVNASRCMGGVARLFTKVQQIRRAEPNVLLLDAGDQYQGTIWFTVYKGAEVAHFMNALRYDAMALGNHEFDNGVEGLIEPLLKEAKFPILSANIKAKGPLASQISGLYLPYKVLPVGDEVVGIVGYTSKETPFLSNPGTNLVFEDEITALQPEVDKLKTLNVNKIIALGHSGFEMDKLIAQKVRGVDVVVGGHSNTFLYTGNPPSKEVPAGKYPFIVTSDDGRKVPVVQAYAFGKYLGYLKIEFDERGNVISSHGNPILLNSSIPEDPSIKADINKWRIKLDNYSTQELGKTIVYLDGSSQSCRFRECNMGNLICDAMINNNLRHTDEMFWNHVSMCILNGGGIRSPIDERNNGTITWENLAAVLPFGGTFDLVQLKGSTLKKAFEHSVHRYGQSTGEFLQVGGIHVVYDLSRKPGDRVVKLDVLCTKCRVPSYDPLKMDEVYKVILPNFLANGGDGFQMIKDELLRHDSGDQDINVVSTYISKMKVIYPAVEGRIKFS",binding,V5-tagged OTUD4 (human),binds
same,binding,[2],no binding
